The source of these data is PMC12463113.

Protein sequences, listed by entry. Tags and fused reporters are not part of them.
UniProt P14618: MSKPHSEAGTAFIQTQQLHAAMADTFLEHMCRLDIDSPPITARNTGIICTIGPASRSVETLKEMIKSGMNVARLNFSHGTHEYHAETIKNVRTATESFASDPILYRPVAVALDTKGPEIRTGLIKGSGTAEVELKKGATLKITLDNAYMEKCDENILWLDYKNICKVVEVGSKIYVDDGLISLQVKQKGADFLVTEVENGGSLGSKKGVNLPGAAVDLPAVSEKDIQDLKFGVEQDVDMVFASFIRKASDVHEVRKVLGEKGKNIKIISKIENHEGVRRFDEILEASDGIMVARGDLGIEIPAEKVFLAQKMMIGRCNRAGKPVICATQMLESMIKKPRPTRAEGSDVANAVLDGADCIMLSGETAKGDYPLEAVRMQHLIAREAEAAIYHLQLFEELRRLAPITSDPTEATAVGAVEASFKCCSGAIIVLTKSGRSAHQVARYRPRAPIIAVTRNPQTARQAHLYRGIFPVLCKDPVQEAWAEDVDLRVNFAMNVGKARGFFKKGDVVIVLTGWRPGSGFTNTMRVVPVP
UniProt Q16665: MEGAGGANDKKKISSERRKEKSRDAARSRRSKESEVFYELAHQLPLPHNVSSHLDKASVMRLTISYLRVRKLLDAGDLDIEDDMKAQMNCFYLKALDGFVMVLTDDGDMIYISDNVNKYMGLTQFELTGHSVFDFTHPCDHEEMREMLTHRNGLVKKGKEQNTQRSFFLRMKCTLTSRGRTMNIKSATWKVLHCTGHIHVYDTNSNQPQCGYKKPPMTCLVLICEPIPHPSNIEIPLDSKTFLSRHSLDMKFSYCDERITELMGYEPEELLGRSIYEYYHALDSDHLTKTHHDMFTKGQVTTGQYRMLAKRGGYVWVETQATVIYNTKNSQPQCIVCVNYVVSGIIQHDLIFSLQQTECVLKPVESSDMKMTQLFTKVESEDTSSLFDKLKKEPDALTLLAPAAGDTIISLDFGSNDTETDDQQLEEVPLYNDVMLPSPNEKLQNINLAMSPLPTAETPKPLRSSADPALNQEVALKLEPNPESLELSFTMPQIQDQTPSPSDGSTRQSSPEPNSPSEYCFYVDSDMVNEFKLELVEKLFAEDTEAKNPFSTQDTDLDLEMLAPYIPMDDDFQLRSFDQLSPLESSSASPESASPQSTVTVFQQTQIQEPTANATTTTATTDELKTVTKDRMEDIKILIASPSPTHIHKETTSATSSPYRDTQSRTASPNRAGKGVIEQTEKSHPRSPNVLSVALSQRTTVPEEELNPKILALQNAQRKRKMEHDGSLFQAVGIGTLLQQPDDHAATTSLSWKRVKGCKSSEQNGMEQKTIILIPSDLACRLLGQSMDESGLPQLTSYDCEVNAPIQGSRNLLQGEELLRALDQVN
UniProt Q8N371: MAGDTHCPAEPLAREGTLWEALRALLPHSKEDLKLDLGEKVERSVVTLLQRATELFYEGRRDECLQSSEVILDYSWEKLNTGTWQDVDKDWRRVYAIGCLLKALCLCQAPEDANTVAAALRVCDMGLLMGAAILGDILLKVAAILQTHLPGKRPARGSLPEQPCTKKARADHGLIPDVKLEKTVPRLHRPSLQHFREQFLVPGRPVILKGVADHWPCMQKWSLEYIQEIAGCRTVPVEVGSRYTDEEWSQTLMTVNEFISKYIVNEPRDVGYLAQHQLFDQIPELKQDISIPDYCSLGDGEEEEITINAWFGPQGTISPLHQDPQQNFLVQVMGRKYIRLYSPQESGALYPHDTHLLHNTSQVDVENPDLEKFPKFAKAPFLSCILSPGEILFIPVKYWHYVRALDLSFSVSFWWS

For the experiment, the target named is PKM2 (human (endogenous in breast cancer cell lines)) (UniProt P14618). Briefly: co-IP; BC cell lysates in IP lysis buffer (25 mM Tris-HCl pH 7.4, 150 mM NaCl, 1% NP-40, 1 mM EDTA, 5% glycerol), 2 µg primary antibody or IgG with Protein A/G PLUS-Agarose, 4 °C overnight, immunoblot; cells also with LINC01094 overexpression or knockdown. A general note: A western blot detects proteins with antibodies after separation by electrophoresis.

No constants are given. Whether binding was seen depends on the method and setting. Binding seen in cells or lysates may run through a third protein. Some binding calls cover weakened binding; strength is not graded here.

As for HIF‐1α (from UniProt Q16665 1-826), the binding result is on record as “binds”.

On to “JMJD5 (from UniProt Q8N371 1-416) (enzyme)”, for which the binding entry was “binds”.
